{
  "source": "patent US20230151075A1",
  "about": "“PARATHYROID HORMONE ATTENUATES LOW BACK PAIN AND OSTEOARTHRITIC PAIN” (The Johns Hopkins University, priority 2019, published 2023)",
  "origin": "cited, not measured here",
  "key": {"[1]": {"tested_on": "patients with Modic changes associated LBP", "settings": "cited from earlier work"}, "[2]": {"tested_on": "subchondral bone marrow edema-like lesions (BMLs)", "settings": "in vivo; cited from earlier work"}},
  "note": "At least one structure is not confirmed: it was looked up by name or label, or the drawing left a doubt.",
  "data": [
    {"smiles": "O=P(O)(O)C(O)(Cn1ccnc1)P(=O)(O)O", "note": "[Zoledronic acid]", "values": [
      {"measurement": "analgesic effects", "setting": "[1]", "value": "analgesic effects"},
      {"measurement": "BML size", "setting": "[2]", "value": "reduces"},
      {"measurement": "pain", "setting": "[2]", "value": "alleviates"}
    ]}
  ]
}
